# Screening data, single-dose tests

Chains of the proteins cited; added tags and fusions are not shown. Residues count along the entry.
UniProt P9WPC5, whole entry: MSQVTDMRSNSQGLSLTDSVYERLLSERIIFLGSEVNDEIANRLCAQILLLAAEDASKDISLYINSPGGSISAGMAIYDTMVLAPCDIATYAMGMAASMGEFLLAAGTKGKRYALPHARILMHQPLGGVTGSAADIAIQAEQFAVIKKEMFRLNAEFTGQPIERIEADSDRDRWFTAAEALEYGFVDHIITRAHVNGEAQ
UniProt P9WPC3, whole entry partner: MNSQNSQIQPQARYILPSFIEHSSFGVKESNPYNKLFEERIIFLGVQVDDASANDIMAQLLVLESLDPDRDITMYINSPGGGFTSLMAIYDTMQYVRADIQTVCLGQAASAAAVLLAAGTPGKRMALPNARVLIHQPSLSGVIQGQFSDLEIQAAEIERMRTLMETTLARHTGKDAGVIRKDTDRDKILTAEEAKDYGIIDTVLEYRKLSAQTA
UniProt P9WNZ1, whole entry: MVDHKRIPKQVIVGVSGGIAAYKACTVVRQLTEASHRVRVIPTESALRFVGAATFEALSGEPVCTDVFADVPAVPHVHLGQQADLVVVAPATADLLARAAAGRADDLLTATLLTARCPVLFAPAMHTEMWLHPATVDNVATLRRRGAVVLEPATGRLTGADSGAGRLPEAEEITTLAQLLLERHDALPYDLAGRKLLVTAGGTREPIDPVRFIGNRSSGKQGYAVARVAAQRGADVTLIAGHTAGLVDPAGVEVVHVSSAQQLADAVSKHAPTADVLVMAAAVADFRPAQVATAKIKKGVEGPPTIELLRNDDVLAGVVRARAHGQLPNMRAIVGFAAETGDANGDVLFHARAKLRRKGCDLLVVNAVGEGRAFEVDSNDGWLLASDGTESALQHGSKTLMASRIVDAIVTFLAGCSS
UniProt A4I591, 1-473: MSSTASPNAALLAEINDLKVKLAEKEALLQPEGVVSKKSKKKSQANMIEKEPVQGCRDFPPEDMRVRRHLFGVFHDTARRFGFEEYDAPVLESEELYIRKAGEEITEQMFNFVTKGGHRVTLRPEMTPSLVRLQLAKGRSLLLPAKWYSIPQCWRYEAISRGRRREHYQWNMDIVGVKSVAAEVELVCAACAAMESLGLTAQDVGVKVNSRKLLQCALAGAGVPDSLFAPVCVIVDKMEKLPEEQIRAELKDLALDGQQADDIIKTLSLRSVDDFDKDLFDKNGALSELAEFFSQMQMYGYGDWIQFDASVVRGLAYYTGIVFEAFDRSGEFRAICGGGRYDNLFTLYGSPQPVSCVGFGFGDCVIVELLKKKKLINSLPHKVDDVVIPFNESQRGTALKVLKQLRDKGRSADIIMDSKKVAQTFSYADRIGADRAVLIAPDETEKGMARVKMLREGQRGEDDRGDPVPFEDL

Measurements from “University of Dundee, Small-Polar-MMV Screening Library” (2021), ChEMBL document CHEMBL3988442.

ClpP1P2: 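ClpP1P2, Mycobacterium tuberculosis (UniProt P9WPC5 and UniProt P9WPC3). Protease assay of ClpP1P2, read by the AMC dye that it sets free. Compounds at 50 µM. Direction is inferred from only a few compounds that gave an IC50; most scored high, so higher reads as stronger inhibition. Most other retested compounds had strongly negative values. Of about 69,000 compounds tested this way, about 10 (0.015%) reached 50% or more in at least one test.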
CoaBC: 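Coenzyme A biosynthesis protein CoaBC, Mycobacterium tuberculosis (UniProt P9WNZ1). Enzyme assay of CoaBC with a phosphate dye (Biomol Green) read at 650 nm. Compounds at 30 µM. Higher reads as stronger inhibition, judged from the few compounds that gave an IC50. Most strong results did not repeat in a second test. Size under these conditions: about 67,000 compounds, about 40 of them at 50% or above in at least one test.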
Leishmania in macrophages: 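Cell assay of Leishmania donovani living inside macrophages; the read-out is not stated. Concentration: 30 µM. Direction is inferred from retests: higher values go with stronger inhibition. About 69,000 compounds were tested under these conditions; 1.5% (about 1,000) showed 50% or more at least once.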
LiHisRS: 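Histidine-tRNA ligase, Leishmania infantum (UniProt A4I591). Enzyme assay of histidyl-tRNA synthetase; the read-out is not stated. Tested at 30 µM. Direction is inferred from retests: higher values go with stronger inhibition. The assay is labelled LdHisRS but filed under L. infantum. Size under these conditions: about 69,000 compounds, about 410 of them at 50% or above in at least one test.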

Each number is a percent effect as filed. The record does not define 0% and 100%; most values in the screen are far below 50% and negative numbers occur (in some assays of this library far below -100). This is an unselected part of the compounds tested. Two or more numbers in one place are separate tests of the same structure; such repeats can differ widely.

CCOn1c(SC(C)C)nc2ccccc2c1=O gave ClpP1P2: -2.957%; CoaBC: 2.532%; Leishmania in macrophages: 14.58% and -20.84%; LiHisRS: 0%.
COCCN(Cc1ccoc1)C(=O)c1ccccc1Cl gave ClpP1P2: -22.89%; CoaBC: 1.394%; Leishmania in macrophages: -6.652%; LiHisRS: 6.796%.
Cc1ccc2c(c1)C1(CCNCC1)CC2NC(C)C.Cl.Cl (centres unmarked) gave Leishmania in macrophages: 16.08% and 9.487%.
Cc1sc(C(=O)NC(C)C)cc1S(=O)(=O)N(C)C gave ClpP1P2: -25.2%; CoaBC: 3.196%; Leishmania in macrophages: 7.311%; LiHisRS: 10.74%.
CCn1ccnc1CN1CCN(CCc2ccncc2)CC1C (centres unmarked) gave ClpP1P2: 2.106%; CoaBC: 2.792%; Leishmania in macrophages: 10.55%; LiHisRS: 22.35%.
Cc1ccccc1CN(C)C(=O)c1ccoc1 gave ClpP1P2: 10.81%; CoaBC: 4.032%; Leishmania in macrophages: 3.044%; LiHisRS: 10.53%.
Cc1nc(N(C)C)nc(C)c1NS(=O)(=O)c1ccc(OC(F)(F)F)cc1 gave ClpP1P2: -0.1706%; CoaBC: 2.421%; Leishmania in macrophages: -27.45%; LiHisRS: 6.522%.
O=C(O)C(F)(F)F.[H][C@]12CC[C@@]3(N=C(CC)N(CC4CC4)C3=O)[C@@]1([H])CN(CC1CC1)C2 gave Leishmania in macrophages: 14.06%.
CN(Cc1ccc(N2CCOCC2)cc1)C(=O)Cn1cccnc1=O gave ClpP1P2: -17.29%; CoaBC: -0.7833%; Leishmania in macrophages: 10.05%; LiHisRS: 10.34%.
[H][C@@]12CC[C@H](Oc3cccc(F)c3)[C@]1([H])CN(C(=O)c1ccnn1C)C2 gave Leishmania in macrophages: 10.25%.
Cc1cccc(OC2CCN(c3ncc(C#N)cc3Cl)CC2)n1 gave ClpP1P2: -5.198%; CoaBC: -2.689%; Leishmania in macrophages: 32.28%; LiHisRS: 4.839%.
CCSC1=Nc2c(cnn2-c2ccc(Cl)cc2)C2=NCCCN12 gave ClpP1P2: -2.381%; CoaBC: -9.211%; Leishmania in macrophages: 5.196%; LiHisRS: 9.655%.
O=C(NC[C@H]1OC[C@@H]2CCN(C3CCOCC3)C[C@@H]21)c1ccncc1 gave ClpP1P2: -12.81%; CoaBC: -4.167%; LiHisRS: 12.82%.
CN1CCN(CCNC(=O)C(OC2CCCC2)c2ccccc2)CC1 (centres unmarked) gave ClpP1P2: -8.299%; CoaBC: 1.988%; Leishmania in macrophages: 38.32%; LiHisRS: 6.349%.
Cc1cccc2c1nc1n2[C@@H](CNC(=O)c2cncnc2)COC1 gave ClpP1P2: -7.926%; CoaBC: -1.987%; Leishmania in macrophages: 16.5%; LiHisRS: 22.97%.
COc1ccc(C(=O)N2CCCCC2c2nc(C)cs2)nn1 (centres unmarked) gave ClpP1P2: 1.912%; CoaBC: -0.9639%; Leishmania in macrophages: 9.548%; LiHisRS: 13.7%.
Cc1cc(C)n(CC(C)NCc2cnc3c(C)cccn23)n1 (centres unmarked) gave ClpP1P2: 0.6467%; CoaBC: -1.33%; Leishmania in macrophages: 11.6%; LiHisRS: 11.29%.
Cc1occc1C(=O)N1CC[C@@H](N2CCOCC2)[C@@H]1Cc1ccccc1 gave ClpP1P2: -3.707%; CoaBC: 1.673%; Leishmania in macrophages: 7.588%; LiHisRS: 21.57%.
CCn1c(C)nnc1SCCNc1cc(OC)ncn1 gave ClpP1P2: 6.732%; CoaBC: 17.22%; Leishmania in macrophages: 14.88%; LiHisRS: 14.29%.
CCn1nc(C)cc1C(=O)N1C[C@@H]2C[C@@H](C)O[C@@H]2C1 gave ClpP1P2: 4.013%; CoaBC: 1.818%; LiHisRS: 3.846%.
Cc1cccc(CNC(=O)Nc2ccn(CCN(C)C)n2)c1 gave ClpP1P2: -1.459%; CoaBC: -12.5%; Leishmania in macrophages: -11.79%; LiHisRS: -1.042%.
Cc1ccc(CN2CCc3c(C(=O)N(C)C)n[nH]c3C2)o1 gave ClpP1P2: -6.619%; CoaBC: 7.125%; Leishmania in macrophages: 11.09%; LiHisRS: 11.65%.
COc1ccccc1CN(CCCn1ccnc1)CC1CCOC1 (centres unmarked) gave ClpP1P2: -7.223%; CoaBC: -9.223%; LiHisRS: 7.143%.
CC(Cc1cncs1)Nc1ncnc2cccc(F)c12 (centres unmarked) gave ClpP1P2: 4.348%; CoaBC: 8.585%; Leishmania in macrophages: 50.92%; LiHisRS: 17.74%.
CN1CCN(Cc2ccccc2CNC(=O)c2ccc(Cl)cc2F)CC1 gave ClpP1P2: -5.424%; CoaBC: -19.23%; Leishmania in macrophages: 26.75%; LiHisRS: 12.33%.
COC(C(=O)NCc1c(C)nc2cc(=O)[nH]n2c1C)c1ccccc1 (centres unmarked) gave ClpP1P2: 10.06%; Leishmania in macrophages: 1.006%; LiHisRS: 18.31%.
CCOc1ccccc1C(=O)Nn1c(C)cc(C)cc1=O gave ClpP1P2: 0.5782%; CoaBC: 0.6135%; Leishmania in macrophages: 19.97%; LiHisRS: 14.43%.
O=C(NCCC1CCN(CC(F)(F)F)CC1)C1COCCO1 (centres unmarked) gave ClpP1P2: -1.99%; CoaBC: -11.92%; Leishmania in macrophages: -0.9273%; LiHisRS: 18.58%.
Cc1ccsc1CCNC(=O)CCC1CCCCN1C (centres unmarked) gave ClpP1P2: 6.684%; CoaBC: 2.683%; Leishmania in macrophages: 5.265%; LiHisRS: 15%.